For at least one compound, name, drawing or mass did not settle the structure.
Target: T1, FabK (Streptococcus pneumoniae, UniProt Q9FBC5)
T1 sequence (Q9FBC5 1-324): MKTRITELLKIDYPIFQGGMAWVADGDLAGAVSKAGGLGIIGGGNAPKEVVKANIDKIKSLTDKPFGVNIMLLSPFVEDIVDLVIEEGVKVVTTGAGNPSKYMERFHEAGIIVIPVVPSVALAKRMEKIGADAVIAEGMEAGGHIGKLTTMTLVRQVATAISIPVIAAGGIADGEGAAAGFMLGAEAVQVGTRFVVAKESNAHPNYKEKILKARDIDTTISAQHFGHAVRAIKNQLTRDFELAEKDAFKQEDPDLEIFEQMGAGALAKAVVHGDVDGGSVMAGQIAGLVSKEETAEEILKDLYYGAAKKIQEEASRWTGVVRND
Test: FabK Enzyme Inhibition Assay
Assay type: biochemical
Description: FabK catalyses the reduction of enoyl-ACPs with the concomitant oxidation of NADH. The reduction of crotonoyl-ACP to butyryl-ACP can be monitored by following the change in absorbance at 340 nm as NADH is oxidized.
Assays were carried out in Costar 3696 half-area plates in a final assay volume of 150 uL on a Spectramax platereader. The substrates (NADH and crotonoyl-ACP) were incubated with FabK enzyme in 100 mM N-[2-acetamido]-2 iminodiacetic acid (ADA), pH 6.5, 100 mM NH4Cl, 4% glycerol at 30° C. and the reaction was monitored at 340 nm.
Using the above assay, compounds were tested for inhibition of FabK. 30 uL of inhibitor was added to a well of the plate. 30 uL of a 250 uM stock of NADH and 60 uL of a 67.5 uM stock of crotonoyl ACP were then added to the well. The plate was incubated at 30° C. for 5 min. The reaction was initiated by adding 30 uL of a 6.25 nM stock of enzyme to the well (also pre-incubated at 30° C.). The reaction was then monitored at A340 nm for 30 min at 30° C. Positive controls were reactions without compound. Negative controls were reactions without enzyme and without compound. Final concentrations in the assay mixture were 25 uM crotonoyl-ACP, 50 uM NADH, and 1.25 nM enzyme.
IC50s were determined for compounds by carrying out the assay at 8 different concentrations of compound (100 uM-0.75 uM) in duplicate. The IC50 was calculated using Grafit software (v 4.09). […]

`Cc1[nH]c2ccccc2c1CN(C)C(=O)/C=C/c1cnc2c(c1)CCC(=O)N2` [Example 68, (E)-N-methyl-N-(2-methyl-1H-indol-3-ylmethyl)-3-(7-oxo-5,6,7,8-tetrahydro-1,8-naphthyridin-3-yl)acrylamide] was tested, and the “Fab K inhibition (result in words)” value was “dual Fab I/Fab K inhibitors”.

From patent publication US7790716B2, “Fab I inhibitors” (Affinium Pharmaceuticals, Inc., priority 1999, dated 2010)
